In PMC8976005:

Target: ATP6V1B
Test: co-IP; HEK293T cells 24-36 h after transfection, lysed in BLB lysis buffer or IP buffer (0.5% NP-40, 150 mM NaCl, 50 mM Tris-HCl, pH 7.5); anti-FLAG or anti-HA beads overnight at 4 °C; immunoblot

Binder | binding
STK11IP (protein, UniProt Q8N1F8 1-1088) MTTAQRDSLLWKLAGLLRESGDVVLSGCSTLSLLTPTLQQLNHVFELHLGPWGPGQTGFVALPSHPADSPVILQLQFLFDVLQKTLSLKLVHVAGPGPTGPIKIFPFKSLRHLELRGVPLHCLHGLRGIYSQLETLICSRSLQALEELLSACGGDFCSALPWLALLSANFSYNALTALDSSLRLLSALRFLNLSHNQVQDCQGFLMDLCELHHLDISYNRLHLVPRMGPSGAALGVLILRGNELRSLHGLEQLRNLRHLDLAYNLLEGHRELSPLWLLAELRKLYLEGNPLWFHPEHRAATAQYLSPRARDAATGFLLDGKVLSLTDFQTHTSLGLSPMGPPLPWPVGSTPETSGGPDLSDSLSSGGVVTQPLLHKVKSRVRVRRASISEPSDTDPEPRTLNPSPAGWFVQQHPELELMSSFRERFGRNWLQYRSHLEPSGNPLPATPTTSAPSAPPASSQGPDTAPRPSPPQEEARGPQESPQKMSEEVRAEPQEEEEEKEGKEEKEEGEMVEQGEEEAGEEEEEEQDQKEVEAELCRPLLVCPLEGPEGVRGRECFLRVTSAHLFEVELQAARTLERLELQSLEAAEIEPEAQAQRSPRPTGSDLLPGAPILSLRFSYICPDRQLRRYLVLEPDAHAAVQELLAVLTPVTNVAREQLGEARDLLLGRFQCLRCGHEFKPEEPRMGLDSEEGWRPLFQKTESPAVCPNCGSDHVVLLAVSRGTPNRERKQGEQSLAPSPSASPVCHPPGHGDHLDRAKNSPPQAPSTRDHGSWSLSPPPERCGLRSVDHRLRLFLDVEVFSDAQEEFQCCLKVPVALAGHTGEFMCLVVVSDRRLYLLKVTGEMREPPASWLQLTLAVPLQDLSGIELGLAGQSLRLEWAAGAGRCVLLPRDARHCRAFLEELLDVLQSLPPAWRNCVSATEEEVTPQHRLWPLLEKDSSLEARQFFYLRAFLVEGPSTCLVSLLLTPSTLFLLDEDAAGSPAEPSPPAASGEASEKVPPSGPGPAVRVREQQPLSSLSSVLLYRSAPEDLRLLFYDEVSRLESFWALRVVCQEQLTALLAWIREPWEELFSIGLRTVIQEALALDR | binds
S404A-STK11IP (protein, UniProt Q8N1F8 1-1088) MTTAQRDSLLWKLAGLLRESGDVVLSGCSTLSLLTPTLQQLNHVFELHLGPWGPGQTGFVALPSHPADSPVILQLQFLFDVLQKTLSLKLVHVAGPGPTGPIKIFPFKSLRHLELRGVPLHCLHGLRGIYSQLETLICSRSLQALEELLSACGGDFCSALPWLALLSANFSYNALTALDSSLRLLSALRFLNLSHNQVQDCQGFLMDLCELHHLDISYNRLHLVPRMGPSGAALGVLILRGNELRSLHGLEQLRNLRHLDLAYNLLEGHRELSPLWLLAELRKLYLEGNPLWFHPEHRAATAQYLSPRARDAATGFLLDGKVLSLTDFQTHTSLGLSPMGPPLPWPVGSTPETSGGPDLSDSLSSGGVVTQPLLHKVKSRVRVRRASISEPSDTDPEPRTLNPAPAGWFVQQHPELELMSSFRERFGRNWLQYRSHLEPSGNPLPATPTTSAPSAPPASSQGPDTAPRPSPPQEEARGPQESPQKMSEEVRAEPQEEEEEKEGKEEKEEGEMVEQGEEEAGEEEEEEQDQKEVEAELCRPLLVCPLEGPEGVRGRECFLRVTSAHLFEVELQAARTLERLELQSLEAAEIEPEAQAQRSPRPTGSDLLPGAPILSLRFSYICPDRQLRRYLVLEPDAHAAVQELLAVLTPVTNVAREQLGEARDLLLGRFQCLRCGHEFKPEEPRMGLDSEEGWRPLFQKTESPAVCPNCGSDHVVLLAVSRGTPNRERKQGEQSLAPSPSASPVCHPPGHGDHLDRAKNSPPQAPSTRDHGSWSLSPPPERCGLRSVDHRLRLFLDVEVFSDAQEEFQCCLKVPVALAGHTGEFMCLVVVSDRRLYLLKVTGEMREPPASWLQLTLAVPLQDLSGIELGLAGQSLRLEWAAGAGRCVLLPRDARHCRAFLEELLDVLQSLPPAWRNCVSATEEEVTPQHRLWPLLEKDSSLEARQFFYLRAFLVEGPSTCLVSLLLTPSTLFLLDEDAAGSPAEPSPPAASGEASEKVPPSGPGPAVRVREQQPLSSLSSVLLYRSAPEDLRLLFYDEVSRLESFWALRVVCQEQLTALLAWIREPWEELFSIGLRTVIQEALALDR | binds

No constants are given. Whether binding was seen depends on the method and setting. Binding seen in cells or lysates may run through a third protein. A result given as binding can be weak or reduced; the word gives no strength.
